PubChem BioAssay AID540275 (National Center for Advancing Translational Sciences (NCATS), 2011)
Among all 320,000 compounds or so, about 620 (0.19%) were called active. Inconclusive results, whose numbers are uncertain, are shown with a selection of clear calls. Rule as the data show it: active = activation above about 80%; inconclusive = between about 30% and that limit; inactive = weaker than that.

The chains behind the UniProt entries cited, without tags or fusion partners.
UniProt Q8NER1, whole entry, looked up: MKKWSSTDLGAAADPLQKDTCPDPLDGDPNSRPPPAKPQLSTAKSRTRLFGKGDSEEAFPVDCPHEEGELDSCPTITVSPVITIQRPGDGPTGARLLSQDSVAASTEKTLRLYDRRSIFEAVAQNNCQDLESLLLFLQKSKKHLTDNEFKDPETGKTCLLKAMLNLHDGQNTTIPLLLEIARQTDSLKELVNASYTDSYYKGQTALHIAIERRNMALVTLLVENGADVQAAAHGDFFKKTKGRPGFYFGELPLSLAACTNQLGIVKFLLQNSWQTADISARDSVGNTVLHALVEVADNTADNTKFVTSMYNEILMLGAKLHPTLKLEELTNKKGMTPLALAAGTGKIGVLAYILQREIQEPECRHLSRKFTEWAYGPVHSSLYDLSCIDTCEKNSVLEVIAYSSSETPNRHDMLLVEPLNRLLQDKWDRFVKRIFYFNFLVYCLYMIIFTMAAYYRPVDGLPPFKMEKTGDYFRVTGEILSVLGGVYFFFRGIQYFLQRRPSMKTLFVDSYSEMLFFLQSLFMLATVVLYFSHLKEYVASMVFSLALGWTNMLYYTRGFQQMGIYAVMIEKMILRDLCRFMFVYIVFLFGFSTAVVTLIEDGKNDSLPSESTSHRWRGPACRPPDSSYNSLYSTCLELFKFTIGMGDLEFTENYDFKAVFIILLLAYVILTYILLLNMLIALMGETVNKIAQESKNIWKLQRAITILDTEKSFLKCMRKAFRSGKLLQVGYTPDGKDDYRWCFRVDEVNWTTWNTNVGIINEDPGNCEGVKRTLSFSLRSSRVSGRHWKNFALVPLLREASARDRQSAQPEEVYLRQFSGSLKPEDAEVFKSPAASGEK

Each molecule was assayed against Transient receptor potential cation channel subfamily V member 1 (Homo sapiens) (UniProt Q8NER1) (assay: HTS Assay for Compounds that Act as Agonists of the Vanilloid Receptor 1). Details: TRPV1-expressing cells, Fluo-8 calcium influx, agonist mode; at 8.33 µM, stronger effect = higher value.
Method in brief: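 Fluo-8 calcium influx in TRPV1-expressing cells, kinetic read (ex 480/em 520 nm). Compound added and read 3 min for agonist activity, followed by capsaicin at EC20 final and 2 min further read for enhancement.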
Also: 0% is about no effect.

Compound	activation
C/C(=N\Nc1nc(C)cc(-c2ccccc2)n1)c1cccc(N)c1	inactive: -2.32%
COc1ccc(C/C(N)=N/OC(=O)Cc2ccccc2)cc1OC	inconclusive: 38%
O=C(Nc1cccc2ccccc12)c1onc2c1CCCC2	inconclusive: 37.8%
C(=N\Nc1nc(Nc2ccccc2)nc(N2CCCCC2)n1)/c1ccco1	inconclusive: 59.2%
O=C(CC(Cc1ccccc1)c1ccco1)NC1CCCCC1 (stereo not given)	inconclusive: 32.8%
O=C(c1ccc(F)cc1)C1CCN(C(=O)NCc2ccccc2)CC1	inconclusive: 42%
CCCC(C(=O)NC(C)(C)C)N(C(=O)c1snc(C(N)=O)c1N)c1ccc2c(c1)OCCO2 (stereo not given)	inconclusive: 36%
Cc1ccc(NC(NC(=O)OCCn2c([N+](=O)[O-])cnc2C)C(Cl)(Cl)Cl)cc1 (stereo not given)	inactive: -0.48%
CC(C)(C)c1ccc(CNc2ccc([N+](=O)[O-])cn2)cc1	inconclusive: 35.3%
CCc1n[nH]c(=S)n1/N=C/C(C)=C\c1ccccc1	inactive: 2.77%
O=c1c2ccccc2nc2n1CCCS2	inactive: 3.97%
Cn1c(N)c(C(=O)COC(=O)/C=C/c2cccc(Br)c2)c(=O)n(C)c1=O	inactive: 3.86%
CCn1cc(C(=O)NCCCN(C)c2ccccc2)c(=O)c2cc(S(=O)(=O)N(C)C)ccc21	inconclusive: 46.3%
Cc1ccc(NC(=O)c2ccc3ccccc3n2)cc1S(=O)(=O)N1CCOCC1	inconclusive: 43.8%
Cc1ccccc1-c1ccc(Nc2ccc(N3CCOCC3)cc2)nn1	inactive: -2.18%
CN1C(=O)/C(=C/c2ccccc2Cl)Sc2ccc(C(=O)N3CCCC3)cc21	inactive: 13.6%
Cc1nc(SCc2ccc(Cl)c(Cl)c2)n[nH]1	inconclusive: 30.5%
O=C(Nc1ccc(Cl)cc1)c1ccc(S(=O)(=O)N2CCOCC2)cc1	inconclusive: 70.6%
O=C(CSc1nc2ncc(Cl)cc2[nH]1)NCCc1ccc(F)cc1	inconclusive: 44.5%
C/C(=N\Nc1cccc(C(=O)O)c1)c1ccc(Cl)s1	inactive: 0.194%
Cn1nc(CC(=O)Nc2ccc(N3CCN(C(=O)OC(C)(C)C)CC3)cc2)c2ccccc2c1=O	inactive: 4.05%
CC(CCc1ccccc1)NC(=O)COC(=O)C1CCC(C(C)(C)C)CC1 (stereo not given)	inconclusive: 36.4%
O=C1c2ccccc2C(Nc2ccc(Cl)cc2)N1CCN1CCOCC1 (stereo not given)	inconclusive: 50.1%
COc1cccc(/C=N/NC(=O)CCCc2ccc(OC)c(C)c2)c1	inconclusive: 42.8%
CC(C)(c1ccccc1)c1ccc(OCC(O)CNC2CCN(Cc3ccccc3)CC2)cc1 (stereo not given)	inactive: -0.679%
CCOC(=O)N1CCC(NS(=O)(=O)c2ccc(C)c(Cl)c2)CC1	inconclusive: 38.3%
C/C(=N\NC(=O)c1ccc(O)cc1)c1cccc(NC(=O)c2ccccc2C)c1	inactive: 3.55%
COc1cccc(CN(C)CC(=O)Nc2ccccc2C(=O)Nc2ccccc2)c1	inconclusive: 51.2%

Copied from the list:
activation with Cc1ccc(NC(NC(=O)OCCn2c([N+](=O)[O-])cnc2C)C(Cl)(Cl)Cl)cc1 (stereo not given) is entered as inactive: -0.48%
activation with Cc1nc(SCc2ccc(Cl)c(Cl)c2)n[nH]1 is entered as inconclusive: 30.5%
activation with O=C(CSc1nc2ncc(Cl)cc2[nH]1)NCCc1ccc(F)cc1 is entered as inconclusive: 44.5%
activation with COc1ccc(C/C(N)=N/OC(=O)Cc2ccccc2)cc1OC is entered as inconclusive: 38%

Next compounds.

Compound	activation
C/C(=N\Nc1nc(Nc2ccccc2)nc(N2CCOCC2)n1)c1cccs1	inconclusive: 32.2%
CCOc1ccccc1NC(=S)NC1CC2CCC1C2 (stereo not given)	inactive: 1.28%
O=C(C1=NOC(CNc2ncc(C(F)(F)F)cc2Cl)C1)N1CCOCC1 (stereo not given)	active: 121%
O=S(Cc1cc(Oc2ccccc2)nc(-c2ccccc2)n1)c1ccccc1 (stereo not given)	inconclusive: 32%
CCCn1c(N2CCN(C)CC2)nc2c1c(=O)[nH]c(=O)n2C	inactive: 0.638%
O=C(Nc1ncccc1O)c1ccc(Cl)c(S(=O)(=O)N2CCCCC2)c1	inconclusive: 65.7%
O=C(CCSc1nc(-c2ccco2)cc(C(F)(F)F)n1)NCc1cccs1	inconclusive: 34.1%
COC(=O)c1sccc1NC(=S)N1CC(C)CC(C)C1 (stereo not given)	inconclusive: 32.1%
O=C(Nc1ccncc1)c1ccc(Cl)c(S(=O)(=O)N2CCc3ccccc32)c1	inconclusive: 77.5%
Cc1cc2[nH]c(=O)c(=O)[nH]c2cc1S(=O)(=O)N1CCN(c2cccc(Cl)c2)CC1	inactive: 1.57%
CN(/N=C/c1cc(Cl)ccc1O)C1=NS(=O)(=O)c2ccccc21	inconclusive: 39.5%
O=C(CCSCc1ccc(Cl)cc1)NCc1cccs1	inconclusive: 66.4%
COc1ccc(NC(=O)/C=C/c2ccc(F)cc2)cn1	inconclusive: 53.5%
COc1ccc(CCNC(=O)C(=O)NCC2OCCN2S(=O)(=O)c2ccc3c(c2)OCCO3)cc1OC (stereo not given)	inconclusive: 56.9%
O=C(/C=C/c1cccc([N+](=O)[O-])c1)N1CCN(c2ccccc2F)CC1	inactive: 17.3%
Cc1ccc(NC(=O)CN(C)C2CCCCC2)cc1Br	inconclusive: 46.9%
CCOc1cc(/C=C(/C#N)c2nc3ccccc3[nH]2)ccc1Oc1ccc([N+](=O)[O-])cn1	inconclusive: 49.6%
COc1cccc(OC)c1C(=O)Nc1cc(C)nn1-c1nc2ccccc2[nH]1	inconclusive: 75%
O=C(/C=C/c1ccc(Cl)cc1)NCc1cccs1	inconclusive: 31.9%
O=C(Nc1cccc(C(F)(F)F)c1)C1CCCN(c2ncccn2)C1 (stereo not given)	inconclusive: 42.5%
Cc1ccc(/C=C/c2nnc(-c3ccccc3)o2)cc1	inconclusive: 57.7%
CC(=O)O[C@H]1C(=O)[C@@]2(C)[C@H]([C@H](OC(=O)c3ccccc3)[C@]3(O)C[C@H](OC(=O)[C@H](O)[C@@H](NC(=O)c4ccccc4)c4ccccc4)C(C)=C1C3(C)C)[C@]1(OC(C)=O)CO[C@@H]1C[C@@H]2O	inactive: 3.92%
Cc1ccc(C(=O)COc2ccc3ccc(=O)oc3c2)cc1	inconclusive: 30.3%
CCCNC(=O)CCn1c(-c2ccc(C)cc2)cc(C(=O)OCC)c1C	inconclusive: 42.8%
CNC(=O)C1CCC(=O)N1Cc1ccccc1Cl (stereo not given)	inactive: 4.55%
COc1ccc(N(C)S(=O)(=O)c2cccc(C(=O)Nc3ccc(-n4cnnn4)cc3)c2)cc1	inconclusive: 49.3%
O=C1CC(Sc2nnc(-c3ccccc3O)o2)C(=O)N1c1ccccc1 (stereo not given)	inconclusive: 49.7%
